Test results from paper doi:10.1101/559005.
These are yes or no findings as the source states them, for the method shown.

Chains of the proteins cited; added tags and fusions are not shown. Lines headed by an entry give the natural chain unless they say otherwise; changes in a name come on top. Residues count along the entry.
UniProt P32597, 1250-1359: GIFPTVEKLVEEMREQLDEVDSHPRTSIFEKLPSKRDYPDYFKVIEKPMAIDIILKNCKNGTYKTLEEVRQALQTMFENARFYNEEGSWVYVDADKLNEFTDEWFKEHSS

Assays:
Experiment in all cases: SEC
[1] = molecular target: ScSth1p bromodomain (residues 1250-1359), wild type (S. cerevisiae) (UniProt P32597)
[2] = molecular target: ScSth1p Tyr1290Ala/Asn1333Ala mutant bromodomain (S. cerevisiae) (UniProt P32597)
[3] = molecular target: ScSth1p Trp1338Gln mutant bromodomain (S. cerevisiae) (UniProt P32597)
[4] = molecular target: ScSth1p Ser1276Glu mutant bromodomain (S. cerevisiae) (UniProt P32597)

Substance: ScSth1p bromodomain (residues 1250-1359), wild type (from UniProt P32597 1250-1359) (domain or fragment)
- binding [1]: no binding

Substance: ScSth1p Tyr1290Ala/Asn1333Ala mutant bromodomain (from UniProt P32597 1250-1359) (domain or fragment)
- binding [2]: no binding

Substance: ScSth1p Trp1338Gln mutant bromodomain (from UniProt P32597 1250-1359) (domain or fragment)
- binding [3]: no binding

Substance: ScSth1p Ser1276Glu mutant bromodomain (from UniProt P32597 1250-1359) (domain or fragment)
- binding [4]: no binding
